PubChem BioAssay AID602196 – INSERM – 2012
Shown is a random part of about 23,000 deposited reagents. 455 of them (2%) were called active. 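Active includes both protection and sensitisation; some change values fall well beyond the stated -50 to +50 range.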 Not all columns of the deposit are shown. Reagent sequences are not shown. Not stated in the record: the amount of reagent.

Assay: 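Genes whose knock-down alters cisplatin killing of lung cancer cells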
Cell system: human A549 lung cancer cells
Reagents: siRNA pair against human genes
Duration: 48 h transfection before cisplatin; time from cisplatin to read-out not stated
Challenge: cisplatin at a dose killing half of control-siRNA cells; exact dose and duration not given
Detection: 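Shift in cisplatin death relative to control siRNA, from -50 (all cells die) to +50 (no cells die); siRNAs harmful on their own scored 0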
Scale: two-siRNA summed score (-2 to +2): higher = both siRNAs protect from cisplatin killing; -2 means both sensitise; mean protection from cisplatin (shift in death): higher = protection from cisplatin killing
Active means: 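siRNAs harmful alone (LDH or WST-1) get 0; others get +1 for less and -1 for more cisplatin killing; genes are active when the two siRNAs give the same sign, summing to ±2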
Meaning of the calls: active = both siRNAs shift cisplatin killing the same way; inactive = no consistent shift, or siRNA harmful alone

TOP2A
- two-siRNA summed score (-2 to +2): 0
- mean protection from cisplatin (shift in death) (%): -5
- Call: inactive

KIF20A
- two-siRNA summed score (-2 to +2): 1
- mean protection from cisplatin (shift in death) (%): 16.4
- Call: inactive

LOC442644
- two-siRNA summed score (-2 to +2): 0
- mean protection from cisplatin (shift in death) (%): 1.4
- Call: inactive

NEURL4
- two-siRNA summed score (-2 to +2): 0
- mean protection from cisplatin (shift in death) (%): 13.3
- Call: inactive

RAB3GAP1
- two-siRNA summed score (-2 to +2): 1
- mean protection from cisplatin (shift in death) (%): 12.1
- Call: inactive

LOC441243
- two-siRNA summed score (-2 to +2): 0
- mean protection from cisplatin (shift in death) (%): 2.7
- Call: inactive

TAF1D
- two-siRNA summed score (-2 to +2): 0
- mean protection from cisplatin (shift in death) (%): 5.8
- Call: inactive

TMEM256
- two-siRNA summed score (-2 to +2): 0
- mean protection from cisplatin (shift in death) (%): 14.6
- Call: inactive

NALCN
- two-siRNA summed score (-2 to +2): 0
- mean protection from cisplatin (shift in death) (%): -5.2
- Call: inactive

FBXO27
- two-siRNA summed score (-2 to +2): 0
- mean protection from cisplatin (shift in death) (%): -0.9
- Call: inactive

TMEM121
- two-siRNA summed score (-2 to +2): 0
- mean protection from cisplatin (shift in death) (%): 5.2
- Call: inactive

BCAP31
- two-siRNA summed score (-2 to +2): 0
- mean protection from cisplatin (shift in death) (%): -3.5
- Call: inactive

LOC441227
- two-siRNA summed score (-2 to +2): 1
- mean protection from cisplatin (shift in death) (%): 17.7
- Call: inactive

JMY
- two-siRNA summed score (-2 to +2): 0
- mean protection from cisplatin (shift in death) (%): 1.9
- Call: inactive

SHISA6
- two-siRNA summed score (-2 to +2): 0
- mean protection from cisplatin (shift in death) (%): 18.5
- Call: inactive

BEGAIN
- two-siRNA summed score (-2 to +2): 0
- mean protection from cisplatin (shift in death) (%): 12.7
- Call: inactive

STAC3
- two-siRNA summed score (-2 to +2): 0
- mean protection from cisplatin (shift in death) (%): 15.6
- Call: inactive

OR4Q3
- two-siRNA summed score (-2 to +2): 1
- mean protection from cisplatin (shift in death) (%): 12.2
- Call: inactive

B9D1
- two-siRNA summed score (-2 to +2): -1
- mean protection from cisplatin (shift in death) (%): -10.5
- Call: inactive

CHD3
- two-siRNA summed score (-2 to +2): 1
- mean protection from cisplatin (shift in death) (%): 16.1
- Call: inactive

PER2
- two-siRNA summed score (-2 to +2): -1
- mean protection from cisplatin (shift in death) (%): -13.1
- Call: inactive

TMEM131
- two-siRNA summed score (-2 to +2): 1
- mean protection from cisplatin (shift in death) (%): 23.7
- Call: inactive

FHL2
- two-siRNA summed score (-2 to +2): 0
- mean protection from cisplatin (shift in death) (%): 9
- Call: inactive

PRMT3
- two-siRNA summed score (-2 to +2): 0
- mean protection from cisplatin (shift in death) (%): 7
- Call: inactive

GZF1
- two-siRNA summed score (-2 to +2): 0
- mean protection from cisplatin (shift in death) (%): 1.3
- Call: inactive

PES1
- two-siRNA summed score (-2 to +2): 0
- mean protection from cisplatin (shift in death) (%): 9.9
- Call: inactive

LKAAEAR1
- two-siRNA summed score (-2 to +2): 0
- mean protection from cisplatin (shift in death) (%): -0.1
- Call: inactive

TSTD2
- two-siRNA summed score (-2 to +2): 1
- mean protection from cisplatin (shift in death) (%): 10
- Call: inactive

S100A13
- two-siRNA summed score (-2 to +2): 0
- mean protection from cisplatin (shift in death) (%): 4.8
- Call: inactive

GFPT1
- two-siRNA summed score (-2 to +2): 0
- mean protection from cisplatin (shift in death) (%): 11.6
- Call: inactive

PTGS2
- two-siRNA summed score (-2 to +2): 0
- mean protection from cisplatin (shift in death) (%): 11.5
- Call: inactive

XRN1
- two-siRNA summed score (-2 to +2): 0
- mean protection from cisplatin (shift in death) (%): 1.1
- Call: inactive

SYT3
- two-siRNA summed score (-2 to +2): 1
- mean protection from cisplatin (shift in death) (%): 10.4
- Call: inactive

COLQ
- two-siRNA summed score (-2 to +2): 0
- mean protection from cisplatin (shift in death) (%): 7
- Call: inactive

OR2W1
- two-siRNA summed score (-2 to +2): 0
- mean protection from cisplatin (shift in death) (%): 4.7
- Call: inactive

AIF1
- two-siRNA summed score (-2 to +2): -2
- mean protection from cisplatin (shift in death) (%): -10.4
- Call: active

COX7B
- two-siRNA summed score (-2 to +2): 0
- mean protection from cisplatin (shift in death) (%): 0.5
- Call: inactive

SACK1A
- two-siRNA summed score (-2 to +2): 0
- mean protection from cisplatin (shift in death) (%): 8.4
- Call: inactive

FLG
- two-siRNA summed score (-2 to +2): 0
- mean protection from cisplatin (shift in death) (%): 7.3
- Call: inactive

ADIPOQ
- two-siRNA summed score (-2 to +2): 0
- mean protection from cisplatin (shift in death) (%): 4.6
- Call: inactive
